The other results are listed elsewhere or left out. The main result of the screen is listed elsewhere. These columns were measured beside it and carry no call. Most of these compounds were active or inconclusive in the main read-out, so they are no random draw. Potencies come from curve fits of mixed quality, noted in brackets.
Assay: Cell signaling CRE-BLA (Fsk stim)
Conditions: CHO CRE-bla reporter (cAMP response element driving beta-lactamase), forskolin EC10, beta-lactamase ratio; measured here: 460 nm blue channel
Method in brief: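 AC50 values, positive or negative, reflect shifts in EC10 NKH 477-induced CRE-bla reporter activity in CHO cells. Incubation lasted 3 h at 37 °C before CCF4 substrate (2 h, room temperature) and ratiometric 460/530 nm reading.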
With `Oc1ccc(O)cc1` the AC50 was 3.98 µM [falling, full curve]. For `COc1ccc(S(=O)(=O)N2CC(C)N(S(=O)(=O)c3ccc(OC)cc3)CC2C)cc1` (stereo not drawn), the AC50 was 0.158 µM [rising, full curve]. In the case of `O=C(c1cccn2c(=O)c3cc(Cl)ccc3nc12)N1CCN(Cc2ccc3c(c2)OCO3)CC1`, the AC50 was 1.26 µM [rising, full curve]. With `COc1ccccc1CNc1nc(-c2ccc(C(=O)N(C)C)cc2)nc2ccccc12` the AC50 was 3.98 µM [rising, full curve]. In the case of `COCCn1c(C)cc(C(=O)CSc2nc(C)cc(C)c2C#N)c1C`, the AC50 was 7.94 µM [rising, partial curve]. With `O=C(C1CC1)N1CCc2cc(Br)cc(S(=O)(=O)NC3CCCCC3)c21` the AC50 was 10 µM [rising, single point]. For `COc1ccc(CNC(=O)c2cc3c(=O)n4ccccc4nc3n(CC3CCCO3)c2=N)cc1` (stereo not drawn), the AC50 was 0.794 µM [rising, full curve]. With `Cn1cc(-c2nc3cnc(Oc4cccc(Cl)c4)nc3n(CCC#N)c2=O)c2ccccc21` the AC50 was 2.51 µM [rising, full curve]. With `Cc1ccc(-c2nn(C)c(=O)c3ccccc23)cc1S(=O)(=O)N1CCOCC1` the AC50 was 2.51 µM [rising, full curve]. With `CSC1=C(C#N)C2(CCCC2)C(C#N)=C(N)N1` the AC50 was 0.00316 µM [rising, full curve, poor fit]. For `CCCSc1nnc(Sc2nnnn2-c2ccccc2)s1`, the AC50 was 3.16 µM [falling, partial curve]. With `O=C(COc1ccccc1)NC1CCN(Cc2ccccc2)CC1` the AC50 was 25.1 µM [rising, single point]. For `COC(=O)c1ccc(CSc2nc3sc4c(c3c(=O)n2C)CCCC4)o1`, the AC50 was 1.58 µM [rising, partial curve]. With `CCN(CC)CCCN(Cc1cc2cc3c(cc2[nH]c1=O)OCCO3)C(=O)Nc1ccc(F)cc1` the AC50 was 12.6 µM [rising, single point]. For `CCCCCC(C)n1[nH]c(=O)c2c(C)cc(C)nc21` (stereo not drawn), the AC50 was 10 µM [rising, single point]. For `CCOC(=O)c1[nH]cnc1C(=O)Nc1cccc(N)n1`, the AC50 was 10 µM [rising, single point]. For `O=C(CSc1ncn[nH]1)Nc1nc(-c2ccccc2)ns1`, the AC50 was 12.6 µM [rising, partial curve]. For `Clc1ccccc1-c1nc(Nc2ccncc2)c2ccccc2n1`, the AC50 was 5.01 µM [rising, full curve, poor fit]. With `N#Cc1cccc(-c2nc(N3CCNCC3)c3ccccc3n2)c1` the AC50 was 12.6 µM [rising, single point]. For `COc1ccc(C2CC(=O)N3CN(c4ccccc4F)CSC3=C2C#N)cc1OC` (stereo not drawn), the AC50 was 10 µM [rising, single point]. For `CCOc1ccc(CC(=O)Nc2c(C(N)=O)oc3ccccc23)cc1OCC`, the AC50 was 7.94 µM [rising, partial curve]. With `CC(=O)N1CCc2cc(Br)cc(S(=O)(=O)N3CCN(C(=O)c4ccco4)CC3)c21` the AC50 was 15.8 µM [rising, single point]. With `C=CCN(CC=C)S(=O)(=O)c1ccc2nc(NC(=O)C(C)C)sc2c1` the AC50 was 10 µM [rising, partial curve]. For `Cc1nc2ccccc2n2c(O)c(CC(=O)O)cc12`, the AC50 was 20 µM [rising, single point]. In the case of `CCCCCCn1cnc2c(c1=O)c1nc3ccccc3nc1n2Cc1cccs1`, the AC50 was 20 µM [rising, single point]. For `COc1ccc(Oc2ncc3nc(C)c(=O)n(C[C@H]4CCCO4)c3n2)cc1`, the AC50 was 12.6 µM [rising, partial curve]. In the case of `O=C(Nc1nc(-c2ccccc2)cs1)C1CCCCN1S(=O)(=O)c1ccccc1` (stereo not drawn), the AC50 was 3.98 µM [falling, partial curve]. For `O=C(NCC1CCCO1)C1CCCN(Cc2cnn(-c3ccccc3)c2-n2cccc2)C1` (stereo not drawn), the AC50 was 10 µM [rising, partial curve]. For `Cc1ccc(NC(=O)CSc2nnc(CCCCCNC(=O)OC(C)(C)C)o2)c(C)c1`, the AC50 was 3.98 µM [falling, full curve, poor fit]. In the case of `O=C(Nc1ccc2c(c1)OCO2)c1cccc2c1C(=O)N(Cc1cccnc1)C2`, the AC50 was 10 µM [rising, partial curve]. In the case of `CC(=O)NCCNc1nc(-c2c(C)noc2C)nc2ccccc12`, the AC50 was 7.94 µM [rising, partial curve]. In the case of `CCOC(=O)c1sc(NC(C)=O)c(C(=O)OCC)c1C`, the AC50 was 12.6 µM [rising, partial curve]. In the case of `COc1cccc(OC)c1C(=O)Nc1ccccc1C(=O)N1CCOCC1`, the AC50 was 12.6 µM [rising, single point]. For `CCOC(=O)c1[nH]c2ccc(OC)cc2c1NC(=O)CN1CCSCC1`, the AC50 was 10 µM [rising, single point]. With `Cc1ccc(-c2nc3ncccc3o2)cc1NC(=O)Cc1ccc(Cl)cc1` the AC50 was 0.00398 µM [falling, full curve, poor fit]. For `CC(C)(C)N1C(=O)Cc2c1nc(N)c1c(N)nc(N3CCCCC3CO)c(C#N)c21` (stereo not drawn), the AC50 was 2.51 µM [rising, full curve]. With `OCCNc1cc(-n2nc(-c3ccccc3)cc2-c2ccccc2)ncn1` the AC50 was 1 µM [falling, partial curve]. In the case of `COc1ccc(C2/C(=C(/O)c3ccc(Cl)cc3)C(=O)C(=O)N2CCN2CCOCC2)c(OC)c1` (stereo not drawn), the AC50 was 2.51 µM [rising, partial curve]. For `Cc1cc(=O)[nH]c(SCc2cccc(Br)c2)n1`, the AC50 was 0.00316 µM [falling, full curve, poor fit]. With `CCOC(=O)c1ccc(Cn2cnc3ccccc3c2=O)cc1` the AC50 was 15.8 µM [rising, single point]. For `CCOC(=O)c1ccc(S(=O)(=O)n2c(CN3CCCCC3)nc3ccccc32)cc1`, the AC50 was 3.16 µM [rising, single point]. In the case of `Clc1ccc(CSc2nnc(-c3ccncc3)o2)c(Cl)c1`, the AC50 was 12.6 µM [rising, single point]. With `O=C(CN1C(=O)CCC1=O)Nc1ccc2c3c(cccc13)CC2` the AC50 was 5.01 µM [falling, single point]. In the case of `Cc1ccc2cc(C#N)c(NCCNC(=O)C3CCC3)nc2c1C`, the AC50 was 12.6 µM [rising, partial curve]. For `Cc1occc1C(=O)N1CCN(c2ncccn2)CC1`, the AC50 was 0.2 µM [rising, partial curve]. With `COCCn1c(=O)c(-c2cn(C)c3ccccc23)nc2cnc(Oc3ccccc3)nc21` the AC50 was 2.51 µM [rising, full curve]. For `COC(=O)N1[C@H](C)C=C[C@]1(Cc1ccccc1)C(=O)NCc1ccc(C)o1`, the AC50 was 20 µM [falling, partial curve, poor fit]. In the case of `CCOc1ccc2nc(NC(=O)C3CCN(c4cnccn4)CC3)sc2c1`, the AC50 was 10 µM [rising, partial curve]. In the case of `[O-][n+]1onc2c1CCc1c-2nn(-c2ccccc2Cl)[n+]1[O-]`, the AC50 was 12.6 µM [falling, partial curve]. In the case of `CCOc1ccc(N2C(=O)c3ccccc3C2O)cc1` (stereo not drawn), the AC50 was 25.1 µM [falling, single point]. In the case of `NC(=O)CC12CC3CC(C1)CC(CC(N)=O)(C3)C2`, the AC50 was 0.794 µM [falling, full curve, poor fit]. With `COC(=O)c1c(NC(=O)C2CC2)sc2c1CCN(C(C)=O)C2` the AC50 was 10 µM [rising, partial curve]. For `CCOC(=O)c1c(NC(=O)OC)sc(C(=O)N(C)C)c1C`, the AC50 was 3.16 µM [rising, partial curve]. In the case of `CN(C1=NC(=O)C(CC(=O)Nc2ccc(Br)cc2)S1)c1ccc(O)cc1` (stereo not drawn), the AC50 was 25.1 µM [rising, single point]. In the case of `CC1(C)C2CCC1(CS(=O)(=O)NCc1ccc(C(=O)O)cc1)C(=O)C2` (stereo not drawn), the AC50 was 5.01 µM [falling, single point]. With `CCOC(=O)N1CCN(C(=O)c2ccc3c(=O)n(CCC4=CCCCC4)c(=O)[nH]c3c2)CC1` the AC50 was 1 µM [rising, partial curve]. For `COc1ccccc1N(CC(=O)Nc1ccccc1C)S(C)(=O)=O`, the AC50 was 1.26 µM [falling, partial curve]. For `CNc1nc(N2CCc3ccccc32)ncc1F`, the AC50 was 25.1 µM [rising, single point]. With `O=C(CN1C(=O)c2ccccc2S1(=O)=O)NCc1ccccn1` the AC50 was 12.6 µM [falling, single point]. With `Clc1ccccc1-c1ccc2ncnc(NC3CCNCC3)c2c1` the AC50 was 7.94 µM [rising, partial curve]. In the case of `CCN=c1scc(-c2ccc3c(c2)NC(=O)CO3)n1N=C1CCCC1`, the AC50 was 0.398 µM [falling, single point]. With `Cc1ccc(Nc2cc(C)nc3nnnn23)cc1` the AC50 was 0.631 µM [falling, partial curve]. With `Cc1ccc(C)c(-n2c(SCC(N)=O)nnc2-c2ccccn2)c1` the AC50 was 10 µM [rising, partial curve]. For `CN(C)C(=O)c1ccc(-c2ccc3ncnc(N4CCNCC4)c3c2)cc1`, the AC50 was 10 µM [rising, single point]. In the case of `CC1Cc2ccccc2N1S(=O)(=O)c1cccc(C(=O)OCC(=O)NC2CCS(=O)(=O)C2)c1` (stereo not drawn), the AC50 was 25.1 µM [rising, single point]. For `CCOC(=O)c1cccc(NC(=O)CCc2c(C)nc3ncnn3c2C)c1`, the AC50 was 25.1 µM [rising, single point]. With `COc1ccc(NC(=O)CSc2nc3ccccc3c(=O)n2CCNC(C)=O)c(OC)c1` the AC50 was 6.31 µM [rising, partial curve, poor fit]. For `CCOC(=O)c1[nH]c(C)c(C(=O)Nc2ccccc2F)c1C`, the AC50 was 12.6 µM [rising, partial curve].

Reference: PubChem BioAssay AID662 (National Center for Advancing Translational Sciences (NCATS), 2007)
